For assay [1], the target named is Rice yellow stunt virus (RYSV) nucleoprotein (N), expressed in E. coli for the GST pull-down (Rice yellow stunt virus) (UniProt Q86523). Description: pull-down; self-interaction: GST-N or GST-P from E. coli BL21 lysate on glutathione-Sepharose beads (3 h), incubated with lysate of His-N or His-P (4 h); western blot with antibodies to GST and His tags. On the technique in general: Immunoblotting shows a protein as a band on a membrane.

Sequences of proteins named here, by UniProt entry; tags and fusion partners are left off.
UniProt Q86523: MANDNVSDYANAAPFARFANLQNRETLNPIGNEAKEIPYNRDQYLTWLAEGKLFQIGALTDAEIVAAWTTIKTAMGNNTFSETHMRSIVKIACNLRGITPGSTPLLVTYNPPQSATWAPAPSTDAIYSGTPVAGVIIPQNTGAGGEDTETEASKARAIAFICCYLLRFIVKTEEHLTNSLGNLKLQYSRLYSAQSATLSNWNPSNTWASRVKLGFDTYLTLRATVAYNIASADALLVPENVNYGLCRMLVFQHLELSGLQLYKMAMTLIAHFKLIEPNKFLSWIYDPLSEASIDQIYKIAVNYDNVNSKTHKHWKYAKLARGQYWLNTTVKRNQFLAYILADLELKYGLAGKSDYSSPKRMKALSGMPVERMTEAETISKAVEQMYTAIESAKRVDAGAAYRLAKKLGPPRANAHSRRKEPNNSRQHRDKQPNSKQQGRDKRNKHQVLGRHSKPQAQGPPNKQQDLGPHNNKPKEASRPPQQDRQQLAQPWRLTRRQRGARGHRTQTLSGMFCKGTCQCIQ
UniProt O70790: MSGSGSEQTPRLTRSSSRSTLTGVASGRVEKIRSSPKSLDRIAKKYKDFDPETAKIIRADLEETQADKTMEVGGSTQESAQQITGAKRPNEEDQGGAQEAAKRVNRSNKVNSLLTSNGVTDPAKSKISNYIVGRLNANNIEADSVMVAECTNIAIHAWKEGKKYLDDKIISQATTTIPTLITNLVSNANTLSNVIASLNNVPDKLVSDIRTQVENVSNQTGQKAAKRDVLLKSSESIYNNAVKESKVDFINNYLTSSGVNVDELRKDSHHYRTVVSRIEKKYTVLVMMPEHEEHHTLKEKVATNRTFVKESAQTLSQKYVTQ

For assay [2], the target named is Rice yellow stunt virus (RYSV) nucleoprotein (N), yeast two-hybrid fusion (Rice yellow stunt virus) (UniProt Q86523). Description: two-hybrid; Matchmaker Gal4 Two-Hybrid System 3 (Clontech), bait in pGBKT7, prey in pGADT7, yeast AH109, growth on SD/-Leu/-Trp/-His/-Ade with X-alpha-Gal.
Assay [3] has as its target Rice yellow stunt virus (RYSV) phosphoprotein (P), expressed in E. coli for the GST pull-down (Rice yellow stunt virus) (UniProt O70790). Description: pull-down; self-interaction: GST-N or GST-P from E. coli BL21 lysate on glutathione-Sepharose beads (3 h), incubated with lysate of His-N or His-P (4 h); western blot with antibodies to GST and His tags.
For assay [4], the target named is Rice yellow stunt virus (RYSV) nucleoprotein (N), expressed in E. coli for the GST pull-down (Rice yellow stunt virus) (UniProt Q86523). Description: pull-down; GST-N or GST from E. coli BL21 lysate immobilised on glutathione-Sepharose beads (3 h), incubated with His-P (4 h; 'purified His-P protein' by the results, lysate by the methods); western blot with antibodies to GST and His tags; only the binder purified.

Assay [5] concerns the target Rice yellow stunt virus (RYSV) phosphoprotein (P), yeast two-hybrid fusion (Rice yellow stunt virus) (UniProt O70790). Description: two-hybrid; Matchmaker Gal4 Two-Hybrid System 3 (Clontech), bait in pGBKT7, prey in pGADT7, yeast AH109, growth on SD/-Leu/-Trp/-His/-Ade with X-alpha-Gal.

Results are given in words; binding and its absence hold for the method and conditions named. For part of these data: In cells and extracts the contact can be indirect. Some results given as binding are weak or reduced against the parent protein; the word gives no strength.

Consider “Rice yellow stunt virus (RYSV) nucleoprotein (N), expressed in E. coli for the GST pull-down (from UniProt Q86523 1-521)”, for which the binding entry in assay [1] is “binds”.
For the substance “Rice yellow stunt virus (RYSV) nucleoprotein (N), yeast two-hybrid fusion (from UniProt Q86523 1-521)”, the binding entry in assay [2] was “binds”.
For the substance “Rice yellow stunt virus (RYSV) phosphoprotein (P), expressed in E. coli for the GST pull-down (from UniProt O70790 1-322)”, the binding result in assay [3] and in assay [4] was “binds” throughout.
For the substance “Rice yellow stunt virus (RYSV) phosphoprotein (P), yeast two-hybrid fusion (from UniProt O70790 1-322)”, the binding result in assay [2] and in assay [5] was “binds” each time.
